Values from PubChem BioAssay AID493246 (Drosophila RNAi Screening Center, 2011).
Assay: 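Genome-wide search for dsRNAs that reduce cell number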 (primary screen). System: Drosophila Kc and S2R+ cells. Reagents: long dsRNA against Drosophila genes. Detection: 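Cell number per well after knock-down, printed as raw plate values; calls were based on per-plate z-scores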. Reading the numbers: Kc cell number and S2R+ cell number: higher = more cells remaining. Hit rule: 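Counted as a hit if cell number falls by a z-score of at least 3 within its plate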.
The screen tested about 21,000 reagents; shown is a random part of those with a known target gene and a result. In the full data, 429 (2%) were called active. 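Values are raw and not normalised between plates; calls rest on per-plate z-scores that were not deposited.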 Entries without a mark were called inactive. The record does not give: the amount of reagent, the time to read-out.

With knock-down of enok (enoki mushroom) [DRSC04096] the results were Kc cell number, rep 1 = 1.54e6; Kc cell number, rep 2 = 1.66e6; S2R+ cell number, rep 1 = 1.00e6; S2R+ cell number, rep 2 = 9.97e5. CG32085 [DRSC10138] gave Kc cell number, rep 1 = 1.45e6; Kc cell number, rep 2 = 1.53e6; S2R+ cell number, rep 1 = 1.26e6; S2R+ cell number, rep 2 = 1.42e6. After knock-down of CG32085 [DRSC10139], the screen gave Kc cell number, rep 1 = 1.54e6; Kc cell number, rep 2 = 1.56e6; S2R+ cell number, rep 1 = 1.27e6; S2R+ cell number, rep 2 = 1.56e6. Against CG32085 [DRSC10576], the entry reads Kc cell number, rep 1 = 1.53e6; Kc cell number, rep 2 = 1.57e6; S2R+ cell number, rep 1 = 1.22e6; S2R+ cell number, rep 2 = 1.39e6. Against CG32021 (retired record) [DRSC17206], the values are Kc cell number, rep 1 = 1.67e6; Kc cell number, rep 2 = 1.64e6; S2R+ cell number, rep 1 = 1.13e6; S2R+ cell number, rep 2 = 1.31e6. For TwdlP (TweedleP) [DRSC14734], the values are Kc cell number, rep 1 = 1.53e6; Kc cell number, rep 2 = 1.60e6; S2R+ cell number, rep 1 = 1.03e6; S2R+ cell number, rep 2 = 1.15e6.

CG6441 [DRSC02957] gave Kc cell number, rep 1 = 1.72e6; Kc cell number, rep 2 = 1.77e6; S2R+ cell number, rep 1 = 1.26e6; S2R+ cell number, rep 2 = 1.45e6. After knock-down of CG7309 [DRSC03045] the results were Kc cell number, rep 1 = 1.53e6; Kc cell number, rep 2 = 1.55e6; S2R+ cell number, rep 1 = 1.18e6; S2R+ cell number, rep 2 = 1.28e6. Silencing of toc (toucan) [DRSC00169] gave: Kc cell number, rep 1 = 1.57e6; Kc cell number, rep 2 = 1.58e6; S2R+ cell number, rep 1 = 1.08e6; S2R+ cell number, rep 2 = 1.24e6. With knock-down of toc (toucan) [DRSC00171] the results were Kc cell number, rep 1 = 1.52e6; Kc cell number, rep 2 = 1.55e6; S2R+ cell number, rep 1 = 1.07e6; S2R+ cell number, rep 2 = 1.18e6. After knock-down of toc (toucan) [DRSC00842], the record shows Kc cell number, rep 1 = 1.29e6; Kc cell number, rep 2 = 1.32e6; S2R+ cell number, rep 1 = 9.88e5; S2R+ cell number, rep 2 = 1.09e6.

Reformatted: 2 of the entries above
{"gene":"CG32085","dsRNA":"DRSC10139","Kc cell number, rep 1":1.54e6,"Kc cell number, rep 2":1.56e6,"S2R+ cell number, rep 1":1.27e6,"S2R+ cell number, rep 2":1.56e6}
{"gene":"CG32085","dsRNA":"DRSC10576","Kc cell number, rep 1":1.53e6,"Kc cell number, rep 2":1.57e6,"S2R+ cell number, rep 1":1.22e6,"S2R+ cell number, rep 2":1.39e6}

Next results:
CG7514 [DRSC08597] gave Kc cell number, rep 1 = 1.48e6; Kc cell number, rep 2 = 1.33e6; S2R+ cell number, rep 1 = 1.19e6; S2R+ cell number, rep 2 = 1.23e6. After knock-down of CG15880 [DRSC00474], the record shows Kc cell number, rep 1 = 1.49e6; Kc cell number, rep 2 = 1.53e6; S2R+ cell number, rep 1 = 1.01e6; S2R+ cell number, rep 2 = 1.18e6. With knock-down of CG44014 [DRSC14995], the screen gave Kc cell number, rep 1 = 1.49e6; Kc cell number, rep 2 = 1.52e6; S2R+ cell number, rep 1 = 1.08e6; S2R+ cell number, rep 2 = 1.15e6. For CG14005 [DRSC02337], the values are Kc cell number, rep 1 = 1.35e6; Kc cell number, rep 2 = 1.37e6; S2R+ cell number, rep 1 = 5.75e5; S2R+ cell number, rep 2 = 6.35e5. With knock-down of CG14017 [DRSC02348], the record shows Kc cell number, rep 1 = 1.46e6; Kc cell number, rep 2 = 1.35e6; S2R+ cell number, rep 1 = 1.09e6; S2R+ cell number, rep 2 = 1.27e6. Knock-down of CG11470 [DRSC14313] came out at: Kc cell number, rep 1 = 1.45e6; Kc cell number, rep 2 = 1.49e6; S2R+ cell number, rep 1 = 9.62e5; S2R+ cell number, rep 2 = 1.09e6.

Knock-down of CG8321 [DRSC07148] came out at: Kc cell number, rep 1 = 1.42e6; Kc cell number, rep 2 = 1.44e6; S2R+ cell number, rep 1 = 1.10e6; S2R+ cell number, rep 2 = 1.10e6. Apoltp (Apolipoprotein lipid transfer particle) [DRSC02508] scored Kc cell number, rep 1 = 1.29e6; Kc cell number, rep 2 = 1.32e6; S2R+ cell number, rep 1 = 1.17e6; S2R+ cell number, rep 2 = 1.23e6. For CG15358 [DRSC00388], the values are Kc cell number, rep 1 = 1.45e6; Kc cell number, rep 2 = 1.54e6; S2R+ cell number, rep 1 = 1.07e6; S2R+ cell number, rep 2 = 1.22e6. CG31538 [DRSC12059] showed Kc cell number, rep 1 = 1.38e6; Kc cell number, rep 2 = 1.49e6; S2R+ cell number, rep 1 = 1.07e6; S2R+ cell number, rep 2 = 1.19e6.
